In patent publication US20240068004A1 (MBRACE THERAPEUTICS, published 2024):
Results are given in words; binding and its absence hold for the method and conditions named. In cells and extracts the contact can be indirect. Some binding calls cover weakened binding; strength is not graded here.

The chains behind the UniProt entries cited, without tags or fusion partners. Residues count along the entry.
UniProt G3I8R9, residues 19-654: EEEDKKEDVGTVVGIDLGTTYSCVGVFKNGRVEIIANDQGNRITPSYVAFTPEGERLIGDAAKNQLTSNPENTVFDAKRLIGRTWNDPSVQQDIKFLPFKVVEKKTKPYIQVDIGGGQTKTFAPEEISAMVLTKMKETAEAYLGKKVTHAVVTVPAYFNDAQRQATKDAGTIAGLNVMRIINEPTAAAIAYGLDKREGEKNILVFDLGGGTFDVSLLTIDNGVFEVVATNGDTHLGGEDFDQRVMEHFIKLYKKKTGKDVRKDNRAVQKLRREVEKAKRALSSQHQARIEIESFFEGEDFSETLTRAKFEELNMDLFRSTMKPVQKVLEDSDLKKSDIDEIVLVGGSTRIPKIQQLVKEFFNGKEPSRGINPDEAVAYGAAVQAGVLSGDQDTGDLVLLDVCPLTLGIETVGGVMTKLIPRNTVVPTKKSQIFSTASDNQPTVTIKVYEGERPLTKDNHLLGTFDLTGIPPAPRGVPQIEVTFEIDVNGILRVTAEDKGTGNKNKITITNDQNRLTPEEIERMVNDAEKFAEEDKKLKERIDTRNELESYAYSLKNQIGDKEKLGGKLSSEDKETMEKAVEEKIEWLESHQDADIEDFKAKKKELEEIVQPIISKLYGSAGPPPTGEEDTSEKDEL

Target: native GRP78 of the CHO production cells (endoplasmic reticulum protein) (Chinese hamster (CHO cells)) (UniProt G3I8R9)
Assay: co-purification (co-immunoprecipitation) from CHO supernatant, SDS-PAGE

Binder | binding
anti-GRP78 antibody clone B4 (antibody, IgG1, V domains shown, Fully human mAb formatted as full-length IgG1; also called B4 mAb) VH: QVRLQESGPGLVKPSQTLSLTCTVSGGSISSGGYYWSWIRQHPGKGLEWIGYIYYSGSTYYNPSLESRVTISVDTSKNQFSLKLSSVTAADTAVYYCARYSSIDAFEIWGQGTMVTVSS VL: SYVLTQPPSVSVAPGKTATITCGGDDIGSKSVHWYQQKPGQAPVLVVYDDGDRPSGIPERFSGSNSGNTATLAISRVEAGDEADYYCQVWDSSSDQYVFGSGTKLTVL | binds
anti-GRP78 antibody clone F6 (antibody, IgG1, V domains shown, Fully human mAb formatted as full-length IgG1; also called F6 mAb) VH: QVQLQQSGPGLVKPPQTLSLTCAISGDSVSSNSAAWNWIRQSPSRGLEWLGRTYYRSKWYNDYAVSVKSRITINPDTSKNQFSLQLNSVTPEDTAVYYCARDPYYYDSSGYYYFDAFDIWGQGTMVTVSS VL: SYELTQPHSVSVAPGQTARITCGGDNIGSKSVHWYQQRPGQAPVLVVYDDSDRPSGIPERFSGSNSENTATLTISGVEAGDEADYYCQVWDSTSHHVVFGGGTKLTVL | binds
